Measurements taken from publication PMC7982423.

What was measured:
[1] = target: T1, p110δ with a C-terminal AviTag (p110δ-AviTag) (mouse) (UniProt O35904); experiment: affinity purification with mass spectrometry; as a3, CD4+ T cell blasts left unstimulated
T1 sequence (chain, biotin on the AviTag (biotinylated in vivo by BirA)): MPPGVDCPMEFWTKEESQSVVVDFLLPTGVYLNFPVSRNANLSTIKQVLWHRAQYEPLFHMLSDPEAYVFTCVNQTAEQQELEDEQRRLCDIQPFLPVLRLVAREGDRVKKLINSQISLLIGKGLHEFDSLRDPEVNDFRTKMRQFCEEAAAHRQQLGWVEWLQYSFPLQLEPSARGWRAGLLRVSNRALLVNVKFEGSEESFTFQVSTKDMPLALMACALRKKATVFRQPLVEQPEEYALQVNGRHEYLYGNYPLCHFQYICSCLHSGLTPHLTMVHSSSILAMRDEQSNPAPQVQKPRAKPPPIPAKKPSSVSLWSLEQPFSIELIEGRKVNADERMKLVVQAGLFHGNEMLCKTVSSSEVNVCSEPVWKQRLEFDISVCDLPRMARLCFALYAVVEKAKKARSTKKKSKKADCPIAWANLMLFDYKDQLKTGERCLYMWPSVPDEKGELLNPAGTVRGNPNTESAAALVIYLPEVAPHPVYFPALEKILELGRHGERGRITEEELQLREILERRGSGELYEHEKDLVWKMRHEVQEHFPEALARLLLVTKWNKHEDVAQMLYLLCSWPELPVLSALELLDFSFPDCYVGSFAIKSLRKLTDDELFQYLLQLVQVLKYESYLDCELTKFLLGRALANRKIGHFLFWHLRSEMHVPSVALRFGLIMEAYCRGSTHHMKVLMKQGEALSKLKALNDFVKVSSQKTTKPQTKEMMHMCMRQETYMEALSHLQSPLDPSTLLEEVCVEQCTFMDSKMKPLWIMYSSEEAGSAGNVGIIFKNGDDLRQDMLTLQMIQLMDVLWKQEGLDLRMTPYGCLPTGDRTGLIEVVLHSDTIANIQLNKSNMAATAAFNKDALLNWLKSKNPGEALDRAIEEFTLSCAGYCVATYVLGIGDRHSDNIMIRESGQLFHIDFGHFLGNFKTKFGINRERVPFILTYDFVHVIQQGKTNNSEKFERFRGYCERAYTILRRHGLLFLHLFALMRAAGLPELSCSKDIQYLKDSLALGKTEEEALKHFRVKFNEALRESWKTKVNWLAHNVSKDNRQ

[2] = target: T1, p110δ with a C-terminal AviTag (p110δ-AviTag) (mouse); experiment: affinity purification with mass spectrometry; as a5, CD4+ T cell blasts left unstimulated
[3] = target: T1, p110δ with a C-terminal AviTag (p110δ-AviTag) (mouse); experiment: affinity purification with mass spectrometry; p110δ-AviTag purified on streptavidin beads from TCR-stimulated CD4+ T cell blasts, separated by SDS-PAGE; the 110-120 kDa gel slice analysed by label-free nLC-MS/MS
[4] = target: T1, p110δ with a C-terminal AviTag (p110δ-AviTag) (mouse); experiment: affinity purification with mass spectrometry; streptavidin beads capture biotinylated p110δ-AviTag from lysates of CD4+ T cell blasts stimulated for 1 min by CD3-CD4-crosslinking (unstimulated cells compared); control purifications from BirA^Tg cells; TMT-labelled nLC-MS/MS, three independent experiments; specific: >1.5-fold enriched, p < 0.05

- binding [3]: binds
- binding [4]: binds
B1: BCAP (adaptor protein, product of Pik3ap1) (protein, UniProt Q9EQ32 1-811)
chain: MAASGWGRGCDILIFYSPDAEEWCQYLQDLFVSCRQVRSQKTQTYRLVPDASFSAQDLWVFRDARCVLVLLSAGLVGCFGQPGLLPMLQRACHPPQRVVRLLCGVQPGDEDFQAFFPDWAHWQEMTCDDEPETYLAAVRKAISEDSGCDSVTDTEPEDERELPFSKQTNLPPEISPGNLMVVQPDRIRCGAETTVYIIVRCKLDEKVSTEAEFSPEDSPSIRVEGTLENEYTVSVKAPDLSSGNVSLKVYSGDLVVCETTVSYYTDMEEIGNLLSSAANPVEFMCQAFKIVPYNTETLDKLLTESLKNNIPASGLHLFGINQLEEDDMMTNQRDEELPTLLHFAAKYGLKNLTALLLTCPGALQAYSVANKHGHYPNTIAEKHGFRDLRQFIDEYVETVDMLKTHIKEELMQGEEADDVYESMAHLSTDLLMKCSLNPGCDDELYESMAAFAPAATEDLYVEMLQASAGNPVSGESFSRPTKDSMIRKFLEGNSVKPASWEREQHHPYGEELYHIVDEDETFSVDLANRPPVPVPRPEASAPGPPPPPDNEPYISKVFAEKSQERLGNFYVSSESIRKEPLVRPWRDRPPSSIYDPFAGMKTPGQRQLITLQEQVKLGIVNVDEAVLHFKEWQLNQKKRSESFRFQQENLKRLRESITRRRKEKPKSGKHTDLEITVPIRHSQHLPEKVEFGVYESGPRKSVLPARTELRRGDWKTDSMSSTASSTSNRSSTRSLLSVSSGMEGDNEDNEIPEITRSRGPGPTQVDGAPVVTGTPVGTLERPPRVPPRAASQRPLTRESFHPPPPVPPRGR
modifications: phosphotyrosine after TCR stimulation (residues not told)
- binding [1]: no binding (only cells without TCR stimulation)
- binding [2]: no binding (only cells without TCR stimulation)

These are yes or no findings as the source states them, for the method shown. In cells and extracts the contact can be indirect. These calls come from enrichment with a bait or labelling near it, and not all partners need be listed. For some of these results: No binding means not detected with the bait. Sequences can lack the tags named with a protein.
